The reference is the same well before dosing, and untreated signal decays as well.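 Labels refer to human fibroblasts, largely primary: uterine (C12385, HUF), lung (H6013), bone (Hs27A), adrenal (HADF), skin (WS1), plus mammary HMF and breast cancer-associated Hs343T. Cancer lines are basal-like or mesenchymal-like triple-negative breast cancer. The paper counts as hits responses shifting over 3x the replicate standard deviation. The tissue of the other fibroblasts is not given here.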
System: MDAMB436
Experiment: relative JC-1 red fluorescence (viability) vs pre-drug, coculture with fibroblast (fraction); higher = more viable cancer cells
Experimental: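 JC-1 labelled TNBC cells cocultured 1:1 (1,500 cells each) with CellTrace Violet stained primary or stromal fibroblasts in 384-well plates in FluoroBrite medium, treated with one of 42 anticancer drugs at 0.1, 1, 10 or 100 uM. JC-1 red fluorescence (mitochondrial integrity in cancer cells only) was read by plate reader every 8 h for 72 h. Values are normalised to each well's pre-drug value. The stock of one drug was tenfold lower, so its dose labels may be too high.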

N#Cc1ccc(C(c2ccc(C#N)cc2)n2cncn2)cc1 [Letrozole]
relative JC-1 red fluorescence
Conditions	8 h	16 h	24 h	32 h	40 h	48 h	56 h	64 h	72 h
0.1 µM, coculture fibroblast: C12385	0.7925	0.683	0.639	0.5476	0.4945	0.463	0.44	0.417	0.412
0.1 µM, coculture fibroblast: H6013	0.777	0.722	0.694	0.68	0.658	0.676	0.641	0.623	0.582
0.1 µM, coculture fibroblast: H6019	0.6912	0.633	0.581	0.4947	0.452	0.427	0.399	0.376	0.349
0.1 µM, coculture fibroblast: H6076	0.7345	0.654	0.622	0.575	0.563	0.54	0.547	0.534	0.528
0.1 µM, coculture fibroblast: H6231	0.735	0.668	0.698	0.62	0.614	0.575	0.562	0.546	0.53
0.1 µM, coculture fibroblast: HADF	0.815	0.68	0.632	0.582	0.546	0.546	0.495	0.481	0.451
0.1 µM, coculture fibroblast: HCFa	0.7011	0.63	0.61	0.572	0.545	0.563	0.497	0.491	0.435
0.1 µM, coculture fibroblast: HCPF	0.739	0.674	0.653	0.59	0.572	0.544	0.517	0.498	0.481
0.1 µM, coculture fibroblast: HHSteC	0.828	0.7628	0.737	0.701	0.687	0.691	0.636	0.612	0.559
0.1 µM, coculture fibroblast: HMF	0.751	0.69	0.658	0.619	0.602	0.578	0.581	0.553	0.541
0.1 µM, coculture fibroblast: HPFa	0.9001	0.787	0.74	0.682	0.659	0.6534	0.578	0.543	0.4792
0.1 µM, coculture fibroblast: HUF	0.862	0.739	0.704	0.628	0.571	0.543	0.51	0.5	0.493
0.1 µM, coculture fibroblast: Hs5	0.749	0.6709	0.6517	0.594	0.5846	0.547	0.56502	0.528	0.522
0.1 µM, coculture fibroblast: Hs27A	0.812	0.736	0.704	0.682	0.655	0.713	0.612	0.591	0.514
0.1 µM, coculture fibroblast: Hs343T	0.796	0.724	0.662	0.608	0.568	0.526	0.501	0.476	0.465
0.1 µM, coculture fibroblast: WS1	0.74	0.66	0.621	0.533	0.483	0.457	0.431	0.402	0.393
1 µM, coculture fibroblast: C12385	0.8168	0.714	0.6825	0.5983	0.5512	0.519	0.499	0.476	0.474
1 µM, coculture fibroblast: H6013	0.842	0.735	0.751	0.747	0.73	0.742	0.709	0.688	0.643
1 µM, coculture fibroblast: H6019	0.7461	0.624	0.599	0.5233	0.481	0.454	0.424	0.396	0.364
1 µM, coculture fibroblast: H6076	0.751	0.631	0.595	0.566	0.549	0.534	0.535	0.536	0.541
1 µM, coculture fibroblast: H6231	0.784	0.684	0.654	0.613	0.585	0.561	0.544	0.52	0.498
1 µM, coculture fibroblast: HADF	0.814	0.7307	0.71	0.684	0.666	0.677	0.637	0.636	0.6
1 µM, coculture fibroblast: HCFa	0.768	0.665	0.635	0.598	0.564	0.575	0.509	0.5	0.443
1 µM, coculture fibroblast: HCPF	0.7855	0.707	0.648	0.602	0.569	0.538	0.508	0.496	0.468
1 µM, coculture fibroblast: HHSteC	0.8042	0.728	0.699	0.662	0.64	0.652	0.599	0.572	0.519
1 µM, coculture fibroblast: HMF	0.7789	0.679	0.6423	0.618	0.592	0.564	0.556	0.543	0.529
1 µM, coculture fibroblast: HPFa	0.867	0.796	0.746	0.704	0.676	0.676	0.592	0.566	0.494
1 µM, coculture fibroblast: HUF	0.8095	0.6945	0.668	0.588	0.533	0.509	0.482	0.463	0.453
1 µM, coculture fibroblast: Hs5	0.7869	0.706	0.702	0.649	0.639	0.601	0.61	0.583	0.57
1 µM, coculture fibroblast: Hs27A	0.784	0.7	0.659	0.626	0.59	0.623	0.546	0.517	0.452
1 µM, coculture fibroblast: Hs343T	0.864	0.749	0.675	0.639	0.587	0.541	0.512	0.484	0.466
1 µM, coculture fibroblast: WS1	0.769	0.657	0.6514	0.5758	0.529	0.503	0.485	0.453	0.435
10 µM, coculture fibroblast: C12385	0.766	0.7081	0.6758	0.582	0.541	0.5171	0.4976	0.48164	0.4742
10 µM, coculture fibroblast: H6013	0.773	0.731	0.7077	0.683	0.66	0.683	0.648	0.628	0.59
10 µM, coculture fibroblast: H6019	0.7564	0.7035	0.665	0.584	0.539	0.518	0.487	0.459	0.441
10 µM, coculture fibroblast: H6076	0.696	0.615	0.586	0.548	0.533	0.518	0.53	0.522	0.507
10 µM, coculture fibroblast: H6231	0.672	0.545	0.574	0.491	0.486	0.454	0.45	0.436	0.43
10 µM, coculture fibroblast: HADF	0.804	0.778	0.753	0.725	0.706	0.729	0.663	0.651	0.61
10 µM, coculture fibroblast: HCFa	0.827	0.789	0.77	0.72	0.685	0.685	0.612	0.6	0.541
10 µM, coculture fibroblast: HCPF	0.732	0.693	0.677	0.63	0.619	0.587	0.554	0.531	0.506
10 µM, coculture fibroblast: HHSteC	0.782	0.747	0.709	0.676	0.666	0.678	0.616	0.594	0.543
10 µM, coculture fibroblast: HMF	0.7058	0.6389	0.5994	0.5512	0.527	0.483	0.48	0.46	0.455
10 µM, coculture fibroblast: HPFa	0.876	0.806	0.771	0.719	0.694	0.698	0.608	0.573	0.496
10 µM, coculture fibroblast: HUF	0.821	0.7514	0.727	0.65	0.5996	0.5676	0.549	0.5354	0.536
10 µM, coculture fibroblast: Hs5	0.713	0.641	0.595	0.523	0.497	0.4541	0.457	0.423	0.418
10 µM, coculture fibroblast: Hs27A	0.816	0.73	0.713	0.678	0.642	0.7041	0.6117	0.598	0.5204
10 µM, coculture fibroblast: Hs343T	0.6922	0.6135	0.55	0.501	0.462	0.43	0.421	0.414	0.412
10 µM, coculture fibroblast: WS1	0.786	0.722	0.685	0.6	0.56	0.528	0.503	0.465	0.45
100 µM, coculture fibroblast: C12385	0.848	0.764	0.708	0.638	0.582	0.5488	0.5089	0.478	0.454
100 µM, coculture fibroblast: H6013	0.91	0.875	0.808	0.796	0.779	0.78	0.753	0.727	0.687
100 µM, coculture fibroblast: H6019	0.809	0.73352	0.7	0.625	0.583	0.562	0.519	0.479	0.443
100 µM, coculture fibroblast: H6076	0.80185	0.695	0.625	0.574	0.535	0.511	0.499	0.488	0.479
100 µM, coculture fibroblast: H6231	0.826	0.738	0.635	0.599	0.547	0.504	0.477	0.443	0.419
100 µM, coculture fibroblast: HADF	0.861	0.797	0.752	0.711	0.684	0.683	0.625	0.605	0.555
100 µM, coculture fibroblast: HCFa	0.831	0.757	0.7081	0.676	0.628	0.634	0.567	0.553	0.498
100 µM, coculture fibroblast: HCPF	0.858	0.807	0.734	0.696	0.637	0.593	0.548	0.519	0.49
100 µM, coculture fibroblast: HHSteC	0.8917	0.8443	0.7931	0.745	0.714	0.708	0.641	0.605	0.546
100 µM, coculture fibroblast: HMF	0.819	0.734	0.643	0.615	0.583	0.549	0.524	0.502	0.481
100 µM, coculture fibroblast: HPFa	0.902	0.829	0.7735	0.7368	0.7035	0.704	0.6207	0.5825	0.5139
100 µM, coculture fibroblast: HUF	0.875	0.787	0.761	0.681	0.6267	0.5923	0.5605	0.5495	0.53997
100 µM, coculture fibroblast: Hs5	0.823	0.756	0.6811	0.622	0.5904	0.5389	0.52	0.479	0.448
100 µM, coculture fibroblast: Hs27A	0.889	0.854	0.827	0.81	0.759	0.763	0.67	0.637	0.546
100 µM, coculture fibroblast: Hs343T	0.816	0.704	0.62	0.562	0.526	0.484	0.458	0.44	0.426
100 µM, coculture fibroblast: WS1	0.8424	0.769	0.72	0.646	0.61	0.576	0.54	0.501	0.474

Reference: the supplement of paper PMC6078165
